# According to article PMC12431657, “Discovery and mechanistic insights of dibenzoylmethane as a broad spectrum inhibitor of coronavirus” (PLOS Pathogens, 2025):
# Counter-ions that a name gives are not always drawn. Like-named read-outs stand apart in the source and are kept apart here. Among all 3,300 compounds or so, about 95 (3%) showed an effect of 50% or more. Some of the results follow. Square brackets hold non-standard residues; d marks the D form. Peptide text beside a SMILES is read from it. * marks the point of attachment. Sta = CC(C)C[C@H](N)[C@@H](O)CC(=O)O; Isovaleryl = CC(C)CC(=O)*
# System: HCoV-229E
# Design: species or system Huh-7; HTS, protection from HCoV-229E induced cell death, luminescent cell viability (CellCounting-Lite 2.0), inhibition rate
# Conditions: 24 h post infection, 1 h compound pre-incubation, 10 µM, inhibitor
SMILES,229E Inhibition rate [%],"229E Inhibition rate (229E Inhibition rate, 24 h) [%]"
C/C=C(/C)C(=O)O[C@H]1[C@@H](OC(C)=O)c2c(ccc3ccc(=O)oc23)OC1(C)C [Praeruptorin A],19.1,–
CC(=O)Nc1ccn([C@@H]2O[C@H](CO)[C@@H](O)[C@H]2O)c(=O)n1 [N4-Acetylcytidine],18.2,–
C=C1CC[C@@H]2[C@](C)(COC(=O)CCC(=O)O)[C@H](OC(=O)CCC(=O)O)CC[C@@]2(C)[C@@H]1/C=C/C1=CCOC1=O [Kalii Dehydrographolidi Succinas],6.7,–
Cc1c[nH]c(=O)[nH]c1=O [Thymine],0,–
C/C=C/SC[C@H](NC(=O)CC[C@H](N)C(=O)O)C(=O)O [γ-Glutamyl-S-1-propenyl cysteine],13.7,–
CC(C)c1ccc(C=O)cc1 [Cuminaldehyde],21.2,–
C[C@H](CCC(=O)O)[C@H]1CC[C@H]2[C@@H]3C(=O)C[C@@H]4C[C@H](O)CC[C@]4(C)[C@H]3C[C@H](O)[C@]12C [7-keto-Deoxycholic acid],13.1,–
C=C1CC[C@H]2C(=C)CC[C@H]3C(=C)C(=O)O[C@@H]3[C@@H]12 [Dehydrocostus Lactone],29.7,–
O=C(O)CCCCCCCCCCCCCCC(=O)O [Hexadecanedioic acid],10.9,–
CN(CC(=O)O)C(=N)NP(=O)(O)O [Phosphocreatine (disodium)],24.1,–
CC(=O)NCCc1cnc[nH]1 [N-Acetylhistamine],8.3,–
CO[C@H]1C[C@H](O[C@H]2CC[C@@]3(C)C(=CC[C@]4(O)[C@@H]3C[C@@H](OC(=O)c3ccc(O)cc3)[C@@]3(C)[C@]4(O)CC[C@@]3(O)C(C)=O)C2)O[C@H](C)[C@H]1O[C@H]1C[C@H](OC)[C@H](O[C@H]2C[C@@H](OC)[C@H](O)[C@@H](C)O2)[C@@H](C)O1 [Qingyangshengenin A],29.7,–
CC(=O)O[C@@H]1C(=O)C2=C(C(=O)C[C@H]3C(C)(C)C(=O)CC[C@]23C)[C@]2(C)C(=O)C[C@H]([C@H](C)CC(=O)CC(C)C(=O)O)[C@@]12C (stereo partly shown) [Ganoderic acid F],12,–
C/C=C1\C(=O)C[C@H]2[C@@H]3CCC4=CC(=O)CC[C@]4(C)[C@H]3CC[C@]12C [Guggulsterone],–,12.7
CC(=O)C(=O)O [Pyruvic acid],48.6,–
Cc1ncc(CO)c(CO)c1O [Pyridoxine],–,14.9
COc1cccc(O)c1C(=O)O [2-Hydroxy-6-methoxybenzoic acid],33.5,–

# An excerpt of these results, with tabs:
SMILES	229E Inhibition rate [%]	229E Inhibition rate (229E Inhibition rate, 24 h) [%]
CC(=O)O[C@@H]1C(=O)C2=C(C(=O)C[C@H]3C(C)(C)C(=O)CC[C@]23C)[C@]2(C)C(=O)C[C@H]([C@H](C)CC(=O)CC(C)C(=O)O)[C@@]12C (stereo partly shown) [Ganoderic acid F]	12	–
C/C=C1\C(=O)C[C@H]2[C@@H]3CCC4=CC(=O)CC[C@]4(C)[C@H]3CC[C@]12C [Guggulsterone]	–	12.7

# Remaining list, next part

SMILES,229E Inhibition rate [%],"229E Inhibition rate (229E Inhibition rate, 24 h) [%]"
COc1c2c(cc3oc(C)cc(=O)c13)OC(C(C)(C)O[C@@H]1O[C@H](CO)[C@@H](O)[C@H](O)[C@H]1O)C2 (stereo partly shown) [5-O-Methylvisammioside],6.3,–
COc1cc(CO)ccc1O [Vanillyl alcohol],7.4,–
CC1=C2C[C@H]3[C@@H](CC=C4C[C@@H](O)CC[C@@]43C)[C@@H]2CC[C@]12O[C@@H]1C[C@H](C)CN[C@H]1[C@H]2C [Cyclopamine],31.6,–
C[C@@H]1O[C@@H](OC[C@H]2O[C@@H](Oc3cc(O)c4c(=O)cc(-c5ccc(O)cc5)oc4c3)[C@H](O[C@@H]3O[C@@H](C)[C@H](O)[C@@H](O)[C@H]3O)[C@@H](O)[C@@H]2O)[C@H](O)[C@H](O)[C@H]1O [Ligustroflavone],8.7,–
"COc1ccc(-c2cc(=O)c3ccccc3o2)cc1OC [3',4'-Dimethoxyflavone]",0,–
CC(=O)OCC(=O)[C@H]1CC[C@H]2[C@@H]3CCC4=CC(=O)CC[C@]4(C)[C@H]3CC[C@]12C [Deoxycorticosterone acetate],37.7,–
CC(C)CC(=O)N[C@H](C(=O)N[C@H](C(=O)N[C@@H](CC(C)C)[C@@H](O)CC(=O)N[C@@H](C)C(=O)N[C@@H](CC(C)C)[C@@H](O)CC(=O)O)C(C)C)C(C)C [Pepstatin (Trifluoroacetate)] (Isovaleryl-VV[Sta]A[Sta]-OH),–,38.1
CC(C)=CCC[C@](C)(O[C@@H]1O[C@H](CO[C@@H]2O[C@H](CO)[C@@H](O)[C@H](O)[C@H]2O)[C@@H](O)[C@H](O)[C@H]1O)[C@H]1CC[C@]2(C)[C@@H]1[C@H](O)C[C@@H]1[C@@]3(C)CC[C@H](O[C@@H]4O[C@H](CO)[C@@H](O)[C@H](O)[C@H]4O[C@@H]4O[C@H](CO)[C@@H](O)[C@H](O)[C@H]4O[C@@H]4OC[C@@H](O)[C@H](O)[C@H]4O)C(C)(C)[C@@H]3CC[C@]12C [Notoginsenoside Fa],0,–
C[C@@H]1CCCCCCCCCCCCC(=O)C1 [Muscone],12.3,–
C/C=C(\C)C(=O)O[C@H]1C[C@@H](OC(C)=O)[C@@]2(C(=O)OC)CO[C@H]3[C@@H](O)[C@@](C)([C@]45O[C@@]4(C)[C@H]4C[C@@H]5O[C@@H]5OC=C[C@@]54O)[C@H]4[C@]1(CO[C@]4(O)C(=O)OC)[C@@H]32 [Azadirachtin],39.3,–
Cc1cc2c(C(C)C)c(O)c(O)c(C=O)c2c(O)c1-c1c(C)cc2c(C(C)C)c(O)c(O)c(C=O)c2c1O [Gossypol],9.9,–
C=CCOC(Cn1ccnc1)c1ccc(Cl)cc1Cl (stereo not shown) [Imazalil],26.3,–
O=C(/C=C/c1ccc(O)c(O)c1)O[C@@H]1C[C@](O)(C(=O)O)C[C@@H](O)[C@H]1O [Chlorogenic acid],7.2,–
C[C@@H]1O[C@@H](OC[C@H]2O[C@@H](Oc3cc(O)c4c(=O)cc(-c5ccc(O)cc5)oc4c3)[C@H](O)[C@@H](O)[C@@H]2O)[C@H](O)[C@H](O)[C@H]1O [Isorhoifolin],0,–
O=P(O)(O)OC(CO)CO [β-Glycerophosphate (disodium salt hydrate)],11.7,–
COc1ccc(/C=C/c2cc(O)cc(O)c2)cc1 [4'-Methoxyresveratrol],21.2,–
O=c1cc(-c2ccccc2)oc2c1ccc1ccccc12 [Alpha-Naphthoflavone],5.7,–
